Results published in patent US9170264B2, “Methods of monitoring for adherence to aripiprazole therapy” (Ameritox, Ltd., priority 2013, dated 2015).
At least one compound was matched to its structure with a doubt left.

Assay: Urine testing for compliance over 5 days, patients prescribed 5 mg/day Abilify (Example 7)
Type: in vivo, human
Experimental: The concentration of any analyte described in the present disclosure may be determined (e.g., measured) by any suitable quantification method. In some embodiments, the concentration of an analyte (e.g., aripiprazole, dehydroaripiprazole, and/or OPC3373) is measured by tandem liquid chromatography-mass spectrometry-mass spectrometry (“LC/MSMS”). In some embodiments, the concentration of an analyte (e.g., aripiprazole, dehydroaripiprazole, and/or OPC3373) is measured by tandem liquid chromatography-High Resolution mass spectrometry (Time of Flight (TOF)) (“LC/MS(TOF)”). In some embodiments, the concentration of an analyte (e.g., aripiprazole, dehydroaripiprazole, and/or OPC3373) is measured by direct injection mass spectrometry-mass spectrometry ([…]) e.g., such systems as RapidFire™ (Agilent) or Laser Diode Thermal Desorption (“LDTD”) (Phytronix) to introduce samples into the mass spectrometer; either triple quadrupole (i.e., MSMS) or exact mass (i.e., Time of Flight, Orbitrap, etc.) instruments
The urine of 25 patients who were prescribed 5 mg of Abilify® (aripiprazole) was tested for compliance over 5 days (Table 11). […] Without OPC3373, only 47% were determined to be positive with patients just being below the reporting cutoffs for both aripiprazole and dehydroaripiprazole. […]

With `O=c1ccc2ccc(OCCCCN3CCN(c4cccc(Cl)c4Cl)CC3)cc2[nH]1` [Dehydroaripiprazole, dehydroaripiprazole] as the molecule, how does the “Urine drug/metabolite concentration, Mean +/- SD” value (Day 4) read?
The value was 1.2 +/− 2/7.

What about the “Urine drug/metabolite concentration, Mean +/- SD” value (Day 5) of the same molecule?
Its value is 1.6 +/− 3/7.
